In the supplement of paper PMC8104966:
“And” between values parts separate entries of the source, which are not always exact repeats. Equal values may be shown once. This is one part of the list. This data set is noisy: repeats of one test often differ as much as different tests do.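 U2OS cells carrying ACE2 were mixed with U2OS cells carrying full-length spike, and fusion was scored by imaging as the share of nuclei showing both cell types' fluorescent markers. A compound counts as an inhibitory hit when it is non-toxic and its fusion z-score falls below -3, meaning more than three standard deviations below the plate's DMSO wells.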

Each compound was assayed on U2OS ACE2 x SARS-CoV-2 spike co-culture (assay: cell-cell fusion (fraction fused) z-score vs plate DMSO control; higher = more fusion). Conditions: 30 µM; 5 h; toxicity class: non-toxic, passed QC.

Compound	cell-cell fusion (z-score)
O=c1[nH]cnc2c1ncn2[C@H]1C[C@H](O)[C@@H](CO)O1 [2'-Deoxyinosine]	inactive: 1.94
Nc1nc(=O)c2c(CCc3ccc(C(=O)N[C@@H](CCC(=O)[O-])C(=O)[O-])cc3)c[nH]c2[nH]1.Nc1nc(=O)c2c(CCc3ccc(C(=O)N[C@@H](CCC(=O)[O-])C(=O)[O-])cc3)c[nH]c2[nH]1.O.O.O.O.O.[Na+].[Na+].[Na+].[Na+] [Pemetrexed Disodium Hydrate]	inactive: 2.62
CCCC[C@@]1(C2CCCC2)Cc2cc(OCC(=O)O)c(Cl)c(Cl)c2C1=O [R(+)-Butylindazone]	inactive: 2.56
NC(=O)C1CCCc2c1[nH]c1ccc(Cl)cc21 (configuration not stated)	inactive: -0.255
Cn1cc(C2=C(c3ccc(Cl)cc3Cl)C(=O)NC2=O)c2ccccc21	inactive: 1.29 and inactive: 2.08
CN(C/C=C/C#CC(C)(C)C)Cc1cccc2ccccc12.Cl	inactive: 4.68
CNC(=O)c1nn(C)c2c1C(C)(C)Cc1cnc(Nc3ccc(N4CCN(C)CC4)cc3)nc1-2	active: -7.44
CCN(CC)CCCC(C)Nc1nc(C)cc(Nc2ccc3nc(C)cc(N)c3c2)n1.Cl.Cl.Cl (configuration not stated)	inactive: 0.0293
O=C(/C=C/c1ccccc1)c1ccc(O[C@@H]2O[C@H](CO)[C@@H](O)[C@H](O)[C@H]2O)cc1O	inactive: 1.98
N#Cc1ccc(COC[C@H]2O[C@H](n3c(NCc4ccc(Cl)c(Cl)c4)nc4c(N)ncnc43)[C@@H](O)[C@H]2O)cc1	inactive: 1.54
CCN(CC)CCCC(C)Nc1ccnc2cc(Cl)ccc12.O=P(O)(O)O.O=P(O)(O)O (configuration not stated)	inactive: 1.27
N[C@@H](CCC(=O)N[C@@H](CS)C(=O)NCC(=O)O)C(=O)O	inactive: -0.461
CC(=O)c1ccc[nH]1	inactive: 2.46
CCN(CCCCOC(=O)c1ccc(OC)c(OC)c1)C(C)Cc1ccc(OC)cc1.Cl (configuration not stated)	inactive: 2.92
Br.COc1ccc2c(c1)[C@]13CCCC[C@@H]1[C@H](C2)N(C)CC3.O [Dextromethorphan HBr monohydrate]	inactive: 2.25
O=C(O)/C=C\C(=O)O.S=C(NC1CCCCC1)N1CCC(c2c[nH]cn2)CC1 [Thioperamide maleate]	inactive: 1.57
CNCCCN1c2ccccc2CCc2ccccc21.Cl [Desipramine hydrochloride]	inactive: 2.9
Cl.Cl.Cl.Cl.Cl.Cl.Cl.Cl.c1cc(CN2CCCNCCNCCCNCC2)ccc1CN1CCCNCCNCCCNCC1 [Plerixafor 8HCl (AMD3100 8HCl)]	inactive: 1.71
CC(C)c1ccccc1Cc1cc(C(=O)Nc2ccc(S(=O)(=O)c3ccccc3C(C)(C)C)cc2)c(O)c(O)c1O	active: -5.21
CC(C)NCC(O)c1cc(O)cc(O)c1 (configuration not stated)	inactive: 0.47
CCCCN(CC)c1nc(C)nc2c1c(C)cn2-c1c(C)cc(C)cc1C.Cl	inactive: 4.47 and inactive: 5.67

Compound	cell-cell fusion (z-score)
Cc1onc(-c2ccccc2Cl)c1C(=O)N[C@@H]1C(=O)N2[C@@H]1SC(C)(C)[C@@H]2C(=O)[O-].[Na+]	inactive: 0.736
C[C@]12CCC3c4ccc(O)cc4CCC3C1CC[C@@H]2OC(=O)CCC1CCCC1 (some centres not stated)	inactive: 0.662
CC1CNc2c(cccc2S(=O)(=O)N[C@@H](CCCNC(=N)N)C(=O)N2CC[C@@H](C)C[C@@H]2C(=O)O)C1 (some centres not stated) [Argatroban]	inactive: 2.56
CO[C@@]1(NC(=O)C(C(=O)[O-])c2ccc(O)cc2)C(=O)N2C(C(=O)[O-])=C(CSc3nnnn3C)CO[C@@H]21.[Na+].[Na+] (some centres not stated)	inactive: 0.33
Cl.c1ccc2c(c1)OCC(C1=NCCN1)O2 (configuration not stated)	inactive: 2.72
Cl.c1ccc2c(c1)OCC(C1=NCCN1)O2 (configuration not stated) [Idazoxan hydrochloride]	inactive: 0.859
COc1cc([C@@H]2c3cc4c(cc3[C@@H](O[C@@H]3O[C@@H]5CO[C@@H](c6cccs6)O[C@H]5[C@H](O)[C@H]3O)[C@H]3COC(=O)[C@H]23)OCO4)cc(OC)c1O [Teniposide]	inactive: 2.33
CCc1nn(CCCN2CCN(c3cccc(Cl)c3)CC2)c(=O)n1CCOc1ccccc1.Cl [Nefazodone hydrochloride]	inactive: 2.42
COC(=O)N[C@H](C(=O)N1CCC[C@H]1C(=O)Nc1ccc([C@@H]2CC[C@@H](c3ccc(NC(=O)[C@@H]4CCCN4C(=O)[C@@H](NC(=O)OC)C(C)C)cc3)N2c2ccc(C(C)(C)C)cc2)cc1)C(C)C [Ombitasvir]	inactive: 2.84
Nc1n[nH]c2nnc(-c3c(-c4ccccc4)nn4ccccc34)cc12	inactive: -1.35
CCn1cc(C(=O)O)c(=O)c2ccc(C)nc21	inactive: 3.18
CN(CCOc1ccc(CC2SC(=O)NC2=O)cc1)c1ccccn1 (configuration not stated) [Rosiglitazone]	inactive: 1.82
Cl.O=C(OCCN1CCOCC1)C1(c2ccccc2)CCCCC1	inactive: 2.98
Cc1cc(C(C)Nc2ccccc2)c2nc(N3CCOCC3)cc(=O)n2c1 (configuration not stated)	inactive: -1.34
N=C(N)NCc1cccc(I)c1.N=C(N)NCc1cccc(I)c1.O=S(=O)(O)O [m-Iodobenzylguanidine hemisulfate]	inactive: 2.32
CN(C)c1ccc(/C=C2\C(=O)Nc3ccccc32)cc1	inactive: 5.3
Nc1nc2c(ncn2CCC(CO)CO)c(=O)[nH]1	inactive: 3.39
C[C@@H](Oc1cc(-n2cnc3ccc(CN4CCN(C)CC4)cc32)sc1C(N)=O)c1ccccc1C(F)(F)F	inactive: -0.872
C=CC1(C)CC(=O)C2(O)C(C)(O1)C(OC(C)=O)C(O)C1C(C)(C)CCC(O)C12C (configuration not stated) [Forskolin]	inactive: -1.54
O=C(O)CCCCCCCCCCCCC1C=CCC1 (configuration not stated)	inactive: 2.77
C=C(CC)C(=O)c1ccc(OCC(=O)O)c(Cl)c1Cl	inactive: 0.539

For reference, part of the list above:
Compound	cell-cell fusion (z-score)
COC(=O)N[C@H](C(=O)N1CCC[C@H]1C(=O)Nc1ccc([C@@H]2CC[C@@H](c3ccc(NC(=O)[C@@H]4CCCN4C(=O)[C@@H](NC(=O)OC)C(C)C)cc3)N2c2ccc(C(C)(C)C)cc2)cc1)C(C)C [Ombitasvir]	inactive: 2.84
Nc1n[nH]c2nnc(-c3c(-c4ccccc4)nn4ccccc34)cc12	inactive: -1.35
CCn1cc(C(=O)O)c(=O)c2ccc(C)nc21	inactive: 3.18
